According to the supplement of paper PMC10849652:
The other results are listed elsewhere or left out.

Sequences of proteins named here, by UniProt entry; tags and fusion partners are left off. A change or cut given only in a name is not applied to a line headed by its entry.
UniProt Q9UNE7: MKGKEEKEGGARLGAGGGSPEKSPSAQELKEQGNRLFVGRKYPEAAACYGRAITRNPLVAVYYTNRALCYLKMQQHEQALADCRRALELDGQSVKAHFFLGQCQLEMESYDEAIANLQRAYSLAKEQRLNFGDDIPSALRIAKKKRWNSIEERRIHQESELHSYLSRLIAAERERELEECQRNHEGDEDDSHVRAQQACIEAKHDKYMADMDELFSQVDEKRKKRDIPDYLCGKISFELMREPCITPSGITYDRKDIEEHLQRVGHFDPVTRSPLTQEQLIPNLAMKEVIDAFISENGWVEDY
UniProt Q8NHG7: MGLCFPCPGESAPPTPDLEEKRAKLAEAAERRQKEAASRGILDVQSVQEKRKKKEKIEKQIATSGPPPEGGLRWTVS
UniProt Q9H7L9: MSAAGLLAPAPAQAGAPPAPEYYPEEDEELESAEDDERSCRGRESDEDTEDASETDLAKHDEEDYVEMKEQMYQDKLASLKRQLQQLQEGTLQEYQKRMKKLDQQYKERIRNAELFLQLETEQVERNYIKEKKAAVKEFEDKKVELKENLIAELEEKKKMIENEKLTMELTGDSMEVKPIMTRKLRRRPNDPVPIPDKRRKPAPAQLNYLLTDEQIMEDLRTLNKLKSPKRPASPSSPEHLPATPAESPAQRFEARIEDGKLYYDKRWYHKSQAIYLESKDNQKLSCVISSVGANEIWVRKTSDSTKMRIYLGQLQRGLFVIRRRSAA
UniProt Q96I99: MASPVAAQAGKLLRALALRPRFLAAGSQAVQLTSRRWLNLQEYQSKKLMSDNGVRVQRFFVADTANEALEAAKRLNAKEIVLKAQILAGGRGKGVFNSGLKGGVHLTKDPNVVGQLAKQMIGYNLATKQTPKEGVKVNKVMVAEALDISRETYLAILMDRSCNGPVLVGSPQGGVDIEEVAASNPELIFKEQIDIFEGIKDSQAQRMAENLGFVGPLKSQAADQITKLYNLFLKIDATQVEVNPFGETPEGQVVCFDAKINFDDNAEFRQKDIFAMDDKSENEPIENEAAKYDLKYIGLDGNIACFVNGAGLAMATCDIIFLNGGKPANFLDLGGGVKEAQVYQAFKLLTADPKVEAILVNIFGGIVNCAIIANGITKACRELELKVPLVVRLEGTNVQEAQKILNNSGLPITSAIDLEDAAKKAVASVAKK
UniProt Q6P1X5, whole entry, looked up: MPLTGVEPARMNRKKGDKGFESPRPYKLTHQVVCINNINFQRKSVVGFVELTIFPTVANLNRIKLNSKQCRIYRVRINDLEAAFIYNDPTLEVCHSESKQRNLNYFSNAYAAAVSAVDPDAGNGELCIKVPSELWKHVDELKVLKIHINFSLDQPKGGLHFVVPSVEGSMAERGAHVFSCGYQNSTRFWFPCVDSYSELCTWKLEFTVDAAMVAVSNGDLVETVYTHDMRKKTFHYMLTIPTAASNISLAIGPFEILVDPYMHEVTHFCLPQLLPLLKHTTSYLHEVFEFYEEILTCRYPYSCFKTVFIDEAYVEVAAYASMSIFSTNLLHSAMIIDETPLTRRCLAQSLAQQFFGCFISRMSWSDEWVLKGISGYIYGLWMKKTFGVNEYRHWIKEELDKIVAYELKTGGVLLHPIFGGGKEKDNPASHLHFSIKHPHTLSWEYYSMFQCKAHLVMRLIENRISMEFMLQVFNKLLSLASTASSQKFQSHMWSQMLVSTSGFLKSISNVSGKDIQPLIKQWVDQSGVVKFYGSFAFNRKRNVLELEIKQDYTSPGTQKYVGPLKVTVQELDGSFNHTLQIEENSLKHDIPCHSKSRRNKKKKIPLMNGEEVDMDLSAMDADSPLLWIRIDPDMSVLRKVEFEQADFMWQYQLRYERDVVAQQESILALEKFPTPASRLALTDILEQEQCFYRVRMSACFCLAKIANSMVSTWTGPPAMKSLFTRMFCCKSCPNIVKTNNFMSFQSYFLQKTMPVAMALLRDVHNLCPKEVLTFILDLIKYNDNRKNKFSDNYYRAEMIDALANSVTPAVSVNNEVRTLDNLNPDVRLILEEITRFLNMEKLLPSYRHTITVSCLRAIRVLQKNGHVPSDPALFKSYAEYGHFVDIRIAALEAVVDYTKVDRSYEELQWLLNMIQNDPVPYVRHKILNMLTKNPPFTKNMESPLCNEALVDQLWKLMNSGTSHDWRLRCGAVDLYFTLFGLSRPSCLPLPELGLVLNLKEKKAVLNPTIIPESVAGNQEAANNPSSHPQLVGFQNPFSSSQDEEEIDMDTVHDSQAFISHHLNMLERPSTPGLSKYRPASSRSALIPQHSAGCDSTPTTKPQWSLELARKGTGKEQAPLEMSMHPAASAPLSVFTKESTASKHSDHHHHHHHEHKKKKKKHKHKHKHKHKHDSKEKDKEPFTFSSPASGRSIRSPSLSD
UniProt Q9NRL3: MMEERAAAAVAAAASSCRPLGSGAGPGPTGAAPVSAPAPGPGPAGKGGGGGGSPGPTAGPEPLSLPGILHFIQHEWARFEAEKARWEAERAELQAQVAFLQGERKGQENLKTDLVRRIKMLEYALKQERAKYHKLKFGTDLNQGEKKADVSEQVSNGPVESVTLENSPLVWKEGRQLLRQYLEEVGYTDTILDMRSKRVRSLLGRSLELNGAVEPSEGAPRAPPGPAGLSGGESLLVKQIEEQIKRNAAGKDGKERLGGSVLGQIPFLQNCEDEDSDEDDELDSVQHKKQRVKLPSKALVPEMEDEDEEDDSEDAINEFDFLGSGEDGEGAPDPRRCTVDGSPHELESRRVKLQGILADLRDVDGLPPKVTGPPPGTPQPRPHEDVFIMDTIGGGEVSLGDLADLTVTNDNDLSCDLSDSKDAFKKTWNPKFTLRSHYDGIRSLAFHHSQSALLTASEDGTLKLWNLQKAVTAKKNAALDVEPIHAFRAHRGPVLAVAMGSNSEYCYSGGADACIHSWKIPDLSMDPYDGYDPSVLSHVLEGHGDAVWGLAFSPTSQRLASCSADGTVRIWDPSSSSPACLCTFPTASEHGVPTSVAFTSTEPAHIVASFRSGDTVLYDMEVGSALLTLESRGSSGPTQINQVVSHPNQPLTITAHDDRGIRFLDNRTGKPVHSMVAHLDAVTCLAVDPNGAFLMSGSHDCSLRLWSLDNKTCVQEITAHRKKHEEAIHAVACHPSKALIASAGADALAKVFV
UniProt Q96SI9: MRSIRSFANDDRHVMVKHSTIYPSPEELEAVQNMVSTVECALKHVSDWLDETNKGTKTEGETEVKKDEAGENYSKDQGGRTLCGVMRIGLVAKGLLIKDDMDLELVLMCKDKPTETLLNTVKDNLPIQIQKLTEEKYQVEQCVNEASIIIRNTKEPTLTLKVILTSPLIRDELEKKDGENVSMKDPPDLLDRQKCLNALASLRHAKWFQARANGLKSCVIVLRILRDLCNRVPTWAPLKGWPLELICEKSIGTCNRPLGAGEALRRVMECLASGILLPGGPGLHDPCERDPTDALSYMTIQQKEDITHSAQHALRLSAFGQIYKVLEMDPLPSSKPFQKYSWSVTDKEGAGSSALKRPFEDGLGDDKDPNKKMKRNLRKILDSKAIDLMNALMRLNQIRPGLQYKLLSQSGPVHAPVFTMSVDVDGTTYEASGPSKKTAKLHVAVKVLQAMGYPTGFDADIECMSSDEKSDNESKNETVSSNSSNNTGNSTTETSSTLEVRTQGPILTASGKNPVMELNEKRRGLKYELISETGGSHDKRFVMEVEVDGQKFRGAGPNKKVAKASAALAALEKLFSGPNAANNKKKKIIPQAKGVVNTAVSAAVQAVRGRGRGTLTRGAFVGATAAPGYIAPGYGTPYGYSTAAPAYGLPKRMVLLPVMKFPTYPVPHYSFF
UniProt O15533, whole entry, looked up: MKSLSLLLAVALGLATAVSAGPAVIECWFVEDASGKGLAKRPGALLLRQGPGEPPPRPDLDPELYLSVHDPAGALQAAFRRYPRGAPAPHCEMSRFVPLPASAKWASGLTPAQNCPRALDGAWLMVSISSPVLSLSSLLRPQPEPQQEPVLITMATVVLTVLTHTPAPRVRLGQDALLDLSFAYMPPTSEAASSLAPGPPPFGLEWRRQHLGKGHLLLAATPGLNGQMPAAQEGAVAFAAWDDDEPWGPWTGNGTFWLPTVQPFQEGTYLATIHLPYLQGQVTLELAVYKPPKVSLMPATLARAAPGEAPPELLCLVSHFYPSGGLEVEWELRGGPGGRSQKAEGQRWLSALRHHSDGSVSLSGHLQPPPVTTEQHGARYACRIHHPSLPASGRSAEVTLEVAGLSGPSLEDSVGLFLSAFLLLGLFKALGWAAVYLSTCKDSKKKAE
UniProt Q92804: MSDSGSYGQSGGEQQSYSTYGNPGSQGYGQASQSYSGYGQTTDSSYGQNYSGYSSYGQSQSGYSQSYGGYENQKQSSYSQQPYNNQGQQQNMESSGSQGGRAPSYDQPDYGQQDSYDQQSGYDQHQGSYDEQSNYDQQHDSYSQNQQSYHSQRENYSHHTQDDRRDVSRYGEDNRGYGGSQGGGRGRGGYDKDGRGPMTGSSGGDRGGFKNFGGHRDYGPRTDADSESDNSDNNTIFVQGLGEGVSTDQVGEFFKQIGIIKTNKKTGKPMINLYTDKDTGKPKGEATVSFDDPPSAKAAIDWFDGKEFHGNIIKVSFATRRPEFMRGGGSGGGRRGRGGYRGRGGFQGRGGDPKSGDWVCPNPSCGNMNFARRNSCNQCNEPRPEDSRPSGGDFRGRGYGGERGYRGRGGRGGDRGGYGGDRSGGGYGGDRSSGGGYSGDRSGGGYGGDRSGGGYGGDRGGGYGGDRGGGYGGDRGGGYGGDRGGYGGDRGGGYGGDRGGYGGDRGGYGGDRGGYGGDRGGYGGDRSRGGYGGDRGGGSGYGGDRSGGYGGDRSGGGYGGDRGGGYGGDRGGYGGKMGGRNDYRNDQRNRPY
UniProt Q13188: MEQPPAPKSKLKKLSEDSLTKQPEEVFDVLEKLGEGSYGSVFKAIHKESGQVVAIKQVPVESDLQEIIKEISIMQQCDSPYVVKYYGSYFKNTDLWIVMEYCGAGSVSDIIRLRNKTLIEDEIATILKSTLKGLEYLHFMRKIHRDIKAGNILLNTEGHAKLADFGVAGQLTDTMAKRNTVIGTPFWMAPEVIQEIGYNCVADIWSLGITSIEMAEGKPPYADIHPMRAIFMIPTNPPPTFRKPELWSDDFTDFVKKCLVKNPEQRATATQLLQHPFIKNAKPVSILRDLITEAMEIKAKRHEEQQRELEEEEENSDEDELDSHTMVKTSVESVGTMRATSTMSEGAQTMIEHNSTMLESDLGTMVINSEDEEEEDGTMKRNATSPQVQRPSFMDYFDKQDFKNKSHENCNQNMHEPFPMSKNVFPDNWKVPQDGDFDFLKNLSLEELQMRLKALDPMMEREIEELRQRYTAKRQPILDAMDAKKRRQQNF
UniProt O75683: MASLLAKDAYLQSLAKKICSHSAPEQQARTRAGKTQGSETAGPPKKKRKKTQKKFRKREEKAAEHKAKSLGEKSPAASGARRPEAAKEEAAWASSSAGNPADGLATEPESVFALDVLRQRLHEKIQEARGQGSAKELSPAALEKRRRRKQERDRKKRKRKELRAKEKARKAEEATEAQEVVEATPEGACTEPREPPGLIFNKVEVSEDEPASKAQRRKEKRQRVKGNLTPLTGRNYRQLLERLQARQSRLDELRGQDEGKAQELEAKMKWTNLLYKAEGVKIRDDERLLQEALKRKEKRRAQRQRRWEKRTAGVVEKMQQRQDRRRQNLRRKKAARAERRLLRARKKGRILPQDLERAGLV
UniProt Q15208: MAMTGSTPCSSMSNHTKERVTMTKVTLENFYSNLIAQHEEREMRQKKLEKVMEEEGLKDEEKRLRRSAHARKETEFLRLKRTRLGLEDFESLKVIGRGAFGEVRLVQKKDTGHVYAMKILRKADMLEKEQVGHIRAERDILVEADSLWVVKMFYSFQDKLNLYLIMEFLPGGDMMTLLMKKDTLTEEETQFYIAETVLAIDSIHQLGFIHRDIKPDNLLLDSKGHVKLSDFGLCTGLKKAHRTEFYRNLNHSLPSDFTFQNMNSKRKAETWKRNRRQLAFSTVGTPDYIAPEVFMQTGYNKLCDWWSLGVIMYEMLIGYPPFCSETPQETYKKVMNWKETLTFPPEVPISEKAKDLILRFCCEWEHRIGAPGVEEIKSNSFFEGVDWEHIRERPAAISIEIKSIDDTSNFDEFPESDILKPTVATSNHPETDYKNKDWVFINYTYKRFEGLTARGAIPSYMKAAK
UniProt Q9UI15: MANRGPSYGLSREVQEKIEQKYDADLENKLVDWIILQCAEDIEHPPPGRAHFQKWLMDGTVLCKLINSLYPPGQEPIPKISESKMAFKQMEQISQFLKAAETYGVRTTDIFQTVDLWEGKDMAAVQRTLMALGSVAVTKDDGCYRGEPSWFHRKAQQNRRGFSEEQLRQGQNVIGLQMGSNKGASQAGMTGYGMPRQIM

Key:
Test in all cases: log2 fold change, soluble protein after heating vs DMSO (PISA); higher = thermal stabilisation; K562 cells, 10 uM, 30 min; active = over 0.2 and 3.5 SD of the protein, either way, in both replicates (recomputed)
[1] = compound: CS(=O)(=O)c1ccc(-c2cnc(N)c(C(=O)Nc3ccccc3)n2)cc1
Procedure, shortened: (§1)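 K562 cells at 2×10^6 cells/mL were exposed to 10 μM compound for 30 min, then aliquots were heated for 3 min across 48°C-58°C, pooled, and extracted in PBS containing 0.5% NP-40 at 4°C. The supernatant after 21,000xg for 90 min was taken as soluble protein and measured by TMTpro 16plex LC-MS/MS with channel sums equalised. Thermal stability is reported relative to control samples, with values from duplicates. Fold changes are given on a log2 scale.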

crizotinib = compound: C[C@@H](Oc1cc(-c2cnn(C3CCNCC3)c2)cnc1N)c1c(Cl)ccc(F)c1Cl [crizotinib]
Procedure, shortened: as §1

[2] = compound: C[C@@H]1COCCN1C2=NC(=NC(=C2)C3(CC3)S(=O)(=O)C)C4=C5C=CNC5=CC=C4
Procedure, shortened: as §1

[3] = compound: C[C@H](C1=CC=C(C=C1)C(=O)NC2=C3C=CNC3=NC=C2)N
Procedure, shortened: as §1

duvelisib = compound: C[C@H](Nc1ncnc2nc[nH]c12)c1cc2cccc(Cl)c2c(=O)n1-c1ccccc1 [duvelisib]
Procedure, shortened: as §1

gandotinib = compound: Cc1cc(Nc2cc(CN3CCOCC3)c3nc(C)c(Cc4ccc(Cl)cc4F)n3n2)n[nH]1 [gandotinib]
Procedure, shortened: as §1

tozasertib = compound: Cc1cc(Nc2cc(N3CCN(C)CC3)nc(Sc3ccc(NC(=O)C4CC4)cc3)n2)n[nH]1 [tozasertib]
Procedure, shortened: as §1

[4] = compound: Cc1cc(SCc2sc(-c3ccc(C(F)(F)F)cc3)nc2C)ccc1OCC(=O)O
Procedure, shortened: as §1

doramapimod = compound: Cc1ccc(-n2nc(C(C)(C)C)cc2NC(=O)Nc2ccc(OCCN3CCOCC3)c3ccccc23)cc1 [doramapimod]
Procedure, shortened: as §1

ispinesib = compound: Cc1ccc(C(=O)N(CCCN)[C@@H](c2nc3cc(Cl)ccc3c(=O)n2Cc2ccccc2)C(C)C)cc1 [ispinesib]
Procedure, shortened: as §1

bafetinib = compound: Cc1ccc(NC(=O)c2ccc(CN3CC[C@H](N(C)C)C3)c(C(F)(F)F)c2)cc1Nc1nccc(-c2cncnc2)n1 [bafetinib]
Procedure, shortened: as §1

[5] = compound: Cc1cccc(CC(=O)N2CCc3c2ccc(-c2cn(C)c4ncnc(N)c24)c3F)n1
Procedure, shortened: as §1

nilotinib = compound: Cc1cn(-c2cc(NC(=O)c3ccc(C)c(Nc4nccc(-c5cccnc5)n4)c3)cc(C(F)(F)F)c2)cn1 [nilotinib]
Procedure, shortened: as §1

[6] = compound: Cc1nc(Nc2n[nH]c3c2CN(C(=O)N[C@H](CN(C)C)c2ccccc2)C3(C)C)c2sccc2n1
Procedure, shortened: as §1

dasatinib = compound: Cc1nc(Nc2ncc(C(=O)Nc3c(C)cccc3Cl)s2)cc(N2CCN(CCO)CC2)n1 [dasatinib]
Procedure, shortened: as §1

[7] = compound: Cc1ncc(-c2ccnc(Nc3ccc(S(C)(=O)=O)cc3)n2)n1C(C)C
Procedure, shortened: as §1

[8] = compound: Cn1cc(-c2ccc3c(c2)CCN3C(=O)Cc2cccc(C(F)(F)F)c2)c2c(N)ncnc21
Procedure, shortened: as §1

[9] = compound: Cn1cc(-c2ccc3nnc(C(F)(F)c4ccc5ncccc5c4)n3n2)cn1
Procedure, shortened: as §1

tipifarnib = compound: Cn1cncc1[C@@](N)(c1ccc(Cl)cc1)c1ccc2c(c1)c(-c1cccc(Cl)c1)cc(=O)n2C [tipifarnib]
Procedure, shortened: as §1

mubritinib = compound: FC(F)(F)c1ccc(/C=C/c2nc(COc3ccc(CCCCn4ccnn4)cc3)co2)cc1 [mubritinib]
Procedure, shortened: as §1

Measured: log2 fold change

SUPT6H (UniProt Q7KZ85)
inactive: [1] 0.064 | crizotinib 0.083 | [2] 0.15 | [3] 0.214 | duvelisib 0.053 | gandotinib -0.132 | tozasertib -0.025 | [4] 0.233 | doramapimod -0.117 | ispinesib -0.034 | bafetinib 0.055 | [5] 0.064 | nilotinib -0.103 | [6] 0.064 | dasatinib -0.385 | [7] 0.077 | [8] -0.021 | [9] -0.111 | tipifarnib -0.026 | mubritinib 0.156

STUB1 (UniProt Q9UNE7)
inactive: [1] 0.067 | crizotinib -0.114 | [2] -0.198 | [3] 0.334 | duvelisib -0.094 | gandotinib -0.003 | tozasertib 0.078 | [4] 0.123 | doramapimod 0.106 | ispinesib -0.045 | bafetinib -0.013 | [5] -0.009 | nilotinib -0.043 | [6] -0.021 | dasatinib -0.034 | [7] -0.052 | [8] -0.08 | [9] -0.054 | tipifarnib -0.018 | mubritinib -0.054

SVIP (UniProt Q8NHG7)
inactive: [1] 0 | crizotinib 0.116 | [2] 0.174 | [3] -0.035 | gandotinib 0.055 | tozasertib -0.042 | doramapimod 0.03 | ispinesib 0.145 | bafetinib -0.087 | [5] -0.038 | nilotinib 0.072 | [6] 0.015 | [7] -0.076 | [8] 0.069 | [9] -0.129 | tipifarnib 0.021 | mubritinib 0.036

SYVN1 (UniProt Q86TM6)
inactive: [1] -0.029 | crizotinib 0.053 | [2] 0.125 | [3] -0.083 | duvelisib 0.052 | gandotinib 0.01 | tozasertib -0.011 | [4] -0.023 | doramapimod 0.032 | ispinesib -0.037 | bafetinib -0.057 | [5] 0 | nilotinib -0.007 | [6] 0.028 | dasatinib 0.048 | [7] -0.034 | [8] 0.029 | [9] 0.008 | tipifarnib -0.021 | mubritinib 0.045

TAF9B (UniProt Q9HBM6)
inactive: [1] 0.033 | crizotinib 0.096 | [2] -0.056 | [3] -0.134 | duvelisib -0.009 | gandotinib 0.159 | tozasertib -0.217 | [4] -0.194 | doramapimod 0.058 | bafetinib 0.003 | [5] -0.186 | dasatinib -0.284 | [8] -0.089 | tipifarnib -0.022 | mubritinib -0.081

SUDS3 (UniProt Q9H7L9)
inactive: [1] 0.064 | crizotinib 0.032 | [2] 0.562 | [3] -0.035 | duvelisib 0.289 | tozasertib 0.017 | [4] -0.12 | doramapimod -0.035 | ispinesib -0.186 | bafetinib 0.126 | nilotinib -0.071 | [6] 0.073 | dasatinib -0.027 | [7] 0.009 | [8] -0.011 | [9] 0.126 | mubritinib 0.032

SUCLG2 (UniProt Q96I99)
inactive: [1] -0.002 | crizotinib -0.014 | [2] 0.134 | [3] -0.067 | duvelisib 0.02 | gandotinib -0.046 | tozasertib -0.024 | [4] -0.005 | doramapimod -0.009 | ispinesib -0.022 | bafetinib -0.068 | [5] 0.019 | nilotinib -0.092 | [6] -0.01 | dasatinib -0.049 | [7] -0.023 | [8] 0.046 | [9] 0.065 | tipifarnib -0.014 | mubritinib -0.058

SUB1 (UniProt P53999)
inactive: [1] 0.012 | crizotinib 0.01 | [2] 0.022 | [3] 0 | duvelisib 0.011 | gandotinib -0.006 | tozasertib -0.032 | [4] -0.051 | doramapimod 0.014 | ispinesib -0.015 | bafetinib -0.043 | [5] -0.046 | nilotinib 0.016 | [6] -0.012 | dasatinib 0.033 | [7] -0.006 | [8] 0 | [9] 0.009 | tipifarnib 0.024 | mubritinib -0.01

TAF2 (UniProt Q6P1X5)
inactive: [1] -0.012 | crizotinib -0.047 | [2] 0.015 | [3] 0.068 | duvelisib 0.045 | gandotinib 0.104 | tozasertib -0.295 | [4] -0.04 | doramapimod 0.005 | ispinesib -0.063 | bafetinib 0.133 | [5] -0.247 | nilotinib -0.127 | [6] 0.001 | dasatinib 0.002 | [7] -0.024 | [8] -0.334 | [9] -0.061 | tipifarnib 0.051 | mubritinib -0.157

STRN4 isoform 3 (UniProt Q9NRL3)
inactive: [1] 0.025 | crizotinib 0.116 | [2] -0.059 | [3] -0.034 | duvelisib 0.036 | gandotinib 0.026 | tozasertib 0.05 | [4] -0.006 | doramapimod -0.013 | ispinesib 0.028 | bafetinib -0.009 | [5] -0.179 | nilotinib -0.009 | [6] 0.114 | dasatinib 0.058 | [7] -0.016 | [8] -0.004 | [9] -0.096 | tipifarnib -0.007 | mubritinib 0.02

STRBP (UniProt Q96SI9)
inactive: [1] -0.127 | crizotinib -0.062 | [2] -0.059 | [3] 0.273 | duvelisib -0.082 | tozasertib 0.02 | [4] 0.036 | doramapimod 0.009 | ispinesib -0.052 | bafetinib 0.099 | nilotinib 0.067 | [6] 0.082 | dasatinib 0.015 | [7] 0.297 | [8] -0.167 | [9] -0.053 | tipifarnib 0.016 | mubritinib -0.095

TAPBP isoform 3 (UniProt O15533)
inactive: [1] -0.145 | crizotinib -0.171 | [2] -0.12 | [3] -0.117 | gandotinib 0.004 | tozasertib 0.059 | doramapimod -0.054 | ispinesib -0.067 | bafetinib 0.086 | [5] -0.078 | nilotinib 0 | [6] -0.002 | [7] -0.054 | [8] -0.063 | [9] 0.104 | tipifarnib -0.081 | mubritinib -0.107

TAF15 (UniProt Q92804)
inactive: [1] -0.059 | crizotinib 0.003 | [2] -0.116 | [3] 0.047 | duvelisib -0.078 | gandotinib 0.067 | tozasertib -0.008 | [4] -0.017 | doramapimod -0.013 | ispinesib 0.004 | bafetinib -0.013 | [5] -0.077 | nilotinib -0.014 | [6] 0.041 | dasatinib 0.116 | [7] 0.057 | [8] -0.136 | [9] -0.121 | tipifarnib 0.04 | mubritinib -0.089

STK3 isoform 2 (UniProt Q13188)
inactive: [1] 0.028 | crizotinib -0.052 | [2] -0.003 | [3] 0.005 | duvelisib 0.016 | gandotinib 0.051 | tozasertib -0.037 | [4] -0.013 | doramapimod 0.028 | ispinesib 0.007 | bafetinib -0.053 | [5] 0.02 | nilotinib 0.016 | [6] 0.083 | dasatinib -0.044 | [7] -0.021 | [8] -0.012 | [9] 0.008 | tipifarnib 0.008 | mubritinib -0.008

SURF6 (UniProt O75683)
inactive: [1] 0.058 | crizotinib 0.026 | [2] -0.358 | [3] 0.355 | duvelisib -0.133 | gandotinib 0.258 | tozasertib 0.082 | [4] -0.043 | doramapimod 0.119 | ispinesib 0.134 | bafetinib 0.081 | [5] -0.033 | nilotinib 0.126 | [6] 0.03 | dasatinib 0.265 | [7] 0.033 | [8] -0.238 | [9] -0.188 | tipifarnib 0.145 | mubritinib -0.072

STK38 (UniProt Q15208)
inactive: [1] 0.081 | crizotinib -0.087 | [2] 0.089 | [3] -0.031 | gandotinib -0.024 | [4] 0.072 | doramapimod -0.011 | ispinesib 0.026 | bafetinib 0.054 | [5] 0 | nilotinib -0.105 | dasatinib -0.136 | [7] 0.009 | [8] 0.035 | [9] 0.008 | tipifarnib -0.079 | mubritinib -0.083
active: [6] -0.343

Reprinted from the listing (2 entries):
STK3 isoform 2 (UniProt Q13188)
inactive: [1] 0.028 | crizotinib -0.052 | [2] -0.003 | [3] 0.005 | duvelisib 0.016 | gandotinib 0.051 | tozasertib -0.037 | [4] -0.013 | doramapimod 0.028 | ispinesib 0.007 | bafetinib -0.053 | [5] 0.02 | nilotinib 0.016 | [6] 0.083 | dasatinib -0.044 | [7] -0.021 | [8] -0.012 | [9] 0.008 | tipifarnib 0.008 | mubritinib -0.008

SURF6 (UniProt O75683)
inactive: [1] 0.058 | crizotinib 0.026 | [2] -0.358 | [3] 0.355 | duvelisib -0.133 | gandotinib 0.258 | tozasertib 0.082 | [4] -0.043 | doramapimod 0.119 | ispinesib 0.134 | bafetinib 0.081 | [5] -0.033 | nilotinib 0.126 | [6] 0.03 | dasatinib 0.265 | [7] 0.033 | [8] -0.238 | [9] -0.188 | tipifarnib 0.145 | mubritinib -0.072

(cont.)

TAGLN3 (UniProt Q9UI15)
inactive: [1] 0.084 | crizotinib 0.053 | [2] 0.126 | [3] 0.074 | duvelisib 0.184 | tozasertib 0.03 | [4] -0.2 | doramapimod 0.024 | bafetinib -0.087 | dasatinib 0.082 | [8] -0.058 | mubritinib -0.057
